PubChem BioAssay AID686938, Drosophila RNAi Screening Center – 2013

Aim: 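Knock-downs reducing store-operated calcium influx in Drosophila cells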 (primary screen)
Cells: Drosophila S2R+ cells
Knock-down reagent: long dsRNA against Drosophila genes, about 0.25 µg dsRNA per well, roughly 10,000 cells
Timing: 5 days of knock-down before the calcium assay
Conditions: thapsigargin (SERCA pump blocker) to empty calcium stores; entry signal taken 4 min after adding it
Read-out: 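Duplicate raw fluo-4 intensities per well from a plate reader, at rest and four minutes after thapsigargin emptied calcium stores; entry-to-rest ratio filled for only some wells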
Reading the numbers: calcium entry signal: higher = stronger calcium signal after store depletion; resting calcium signal: higher = higher resting calcium signal
Active means: 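Hit if the duplicate-averaged plate z-score for entry over resting signal is under −3; wells with weak total dye signal (Fmax z < −2) or more than 5 off-targets removed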
Meaning of the calls: active = strongly reduced calcium entry; inactive = no strong reduction
In all, the deposit lists about 23,000 reagents; shown is a random part of those that have a named target and a result. Over the whole deposit, 75 (0.33%) are marked active. 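Raw plate signals without normalisation; calls rest on plate z-scores that were not deposited; ratio present for only 364 wells.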 A plus sign joins genes that one reagent is predicted to hit. Not given: the dose of the treatment.

The first 7 records, ahead of the listing:
no.	gene	amplicon	calcium entry signal, replicate 1 (fluorescence units)	calcium entry signal, replicate 2 (fluorescence units)	resting calcium signal, replicate 1 (fluorescence units)	resting calcium signal, replicate 2 (fluorescence units)	activity call
1	SkpA	DRSC18833	4.19e7	4.94e7	2.76e7	2.81e7	inactive
2	Cyp318a1	DRSC19784	4.39e7	6.14e7	2.04e7	2.92e7	inactive
3	CG9815	DRSC04567	3.59e7	4.20e7	1.96e7	1.75e7	inactive
4	kel	DRSC03554	4.26e7	3.78e7	1.96e7	1.77e7	inactive
5	Obp50d	DRSC05483	5.89e7	4.62e7	3.01e7	2.02e7	inactive
6	CG30031 + deltaTry + CG30025 + 1 more	DRSC21262	4.05e7	5.27e7	2.21e7	2.24e7	inactive
7	Cpr57A + Obp57d	DRSC06708	3.69e7	3.50e7	1.74e7	1.65e7	inactive

Results, from the first entry:
no.	gene	amplicon	calcium entry signal, replicate 1 (fluorescence units)	calcium entry signal, replicate 2 (fluorescence units)	resting calcium signal, replicate 1 (fluorescence units)	resting calcium signal, replicate 2 (fluorescence units)	activity call
1	SkpA	DRSC18833	4.19e7	4.94e7	2.76e7	2.81e7	inactive
2	Cyp318a1	DRSC19784	4.39e7	6.14e7	2.04e7	2.92e7	inactive
3	CG9815	DRSC04567	3.59e7	4.20e7	1.96e7	1.75e7	inactive
4	kel	DRSC03554	4.26e7	3.78e7	1.96e7	1.77e7	inactive
5	Obp50d	DRSC05483	5.89e7	4.62e7	3.01e7	2.02e7	inactive
6	CG30031 + deltaTry + CG30025 + 1 more	DRSC21262	4.05e7	5.27e7	2.21e7	2.24e7	inactive
7	Cpr57A + Obp57d	DRSC06708	3.69e7	3.50e7	1.74e7	1.65e7	inactive
8	Cpr57A + Obp57d	DRSC22719	3.92e7	3.39e7	2.08e7	1.54e7	inactive
9	BomT3	DRSC13537	4.15e7	2.63e7	2.09e7	1.34e7	inactive
10	BomT3	DRSC15871	4.28e7	5.56e7	5.18e7	2.41e7	inactive
11	CG32199	DRSC09990	3.54e7	5.77e7	1.70e7	2.42e7	inactive
12	CG13630	DRSC14631	4.06e7	4.15e7	1.71e7	1.78e7	inactive
13	CG42676	DRSC08227	4.47e7	3.68e7	2.07e7	2.01e7	inactive
14	CG42676	DRSC08392	4.19e7	3.63e7	2.03e7	1.77e7	inactive
15	CG14034	DRSC02359	3.91e7	3.83e7	1.88e7	1.67e7	inactive
16	Dys + snoRNA:Me18S-A1374	DRSC16232	3.44e7	4.94e7	5.17e7	2.57e7	inactive
17	Su(var)2-10	DRSC07721	4.25e7	4.54e7	2.04e7	2.04e7	inactive
18	CG17078	DRSC00484	4.64e7	4.82e7	2.12e7	2.07e7	inactive
19	Polr2I	DRSC16832	9.45e6	1.69e7	6.97e6	4.81e7	inactive
20	nvd	DRSC22139	2.68e7	4.76e7	1.30e7	2.24e7	inactive
21	BicC	DRSC02005	4.72e7	3.67e7	2.01e7	1.80e7	inactive
22	CG4627	DRSC06873	2.41e7	3.51e7	1.28e7	1.56e7	inactive
23	CG13813	DRSC10068	1.77e7	3.43e7	1.01e7	1.58e7	inactive
24	Pten	DRSC03402	3.30e7	3.52e7	1.35e7	1.55e7	inactive
25	CG17625	DRSC15249	4.25e7	3.49e7	2.06e7	1.49e7	inactive
26	CG14657	DRSC12219	2.91e7	4.67e7	1.40e7	1.99e7	inactive
27	CG14657	DRSC12243	2.58e7	3.66e7	1.14e7	1.60e7	inactive
28	CG1965	DRSC12577	5.87e7	5.17e7	2.10e7	2.34e7	inactive
29	CG1965	DRSC21828	4.08e7	3.60e7	2.27e7	1.66e7	inactive
30	lncRNA:CR32835	DRSC22693	3.03e7	4.19e7	1.60e7	1.74e7	inactive
31	TTLL5	DRSC14181	3.82e7	3.24e7	2.03e7	1.59e7	inactive
32	v	DRSC20383	2.39e7	2.86e7	1.16e7	1.32e7	inactive
33	CG6283	DRSC16009	3.02e7	5.51e7	1.68e7	2.35e7	inactive
34	glu	DRSC03539	3.72e7		2.36e7		inactive
35	polyph	DRSC06254	3.88e7	4.18e7	1.96e7	1.55e7	inactive
36	CG10700	DRSC02096	4.27e7	4.52e7	2.01e7	1.93e7	inactive
37	CG5096	DRSC02813	3.11e7	4.66e7	1.48e7	1.91e7	inactive
38	gnu	DRSC10497	2.53e7	3.74e7	1.27e7	2.48e7	inactive
39	CG1850	DRSC06762	4.16e7	4.16e7	1.98e7	1.78e7	inactive
40	Cyp4p1	DRSC07372	4.71e7	4.00e7	1.95e7	1.70e7	inactive
41	CG13110	DRSC02208	3.78e7	3.32e7	1.78e7	1.63e7	inactive
42	Bgb	DRSC08148	4.09e7	3.89e7	1.83e7	1.73e7	inactive
43	CG4199	DRSC18519	3.02e7	3.83e7	1.38e7	1.65e7	inactive
44	CG4199	DRSC21314	3.12e7	3.13e7	1.62e7	1.43e7	inactive
45	Ced-12	DRSC02840	3.24e7	2.09e7	1.50e7	1.01e7	inactive
46	Oatp33Ea	DRSC02859	3.07e7		1.64e7		inactive
47	CG4558	DRSC18369	4.12e7	4.08e7	1.84e7	1.93e7	inactive
48	Cdc16	DRSC16920	3.56e7	3.24e7	2.62e7	2.06e7	active
49	CG8745	DRSC11033	2.65e7	3.70e7	1.18e7	2.50e7	inactive
50	CG8745	DRSC11034	3.52e7	3.69e7	1.87e7	1.68e7	inactive
51	CG8745	DRSC22741	4.36e7	3.33e7	2.41e7	1.71e7	inactive
52	CG33981 + fab1	DRSC07412	3.42e7	3.34e7	1.62e7	1.67e7	inactive
53	CG42336	DRSC05273	4.39e7	5.56e7	2.32e7	2.65e7	inactive
54	CG42336	DRSC06332	2.40e7	4.17e7	1.32e7	1.78e7	inactive
55	CG42336	DRSC06333	2.32e7	4.17e7	1.25e7	2.18e7	inactive
56	lbm	DRSC07643	2.86e7	4.11e7	1.37e7	1.83e7	inactive
57	CG12725	DRSC19501	4.21e7	4.06e7	1.92e7	1.76e7	inactive
58	CG7320	DRSC10810	3.74e7	7.08e7	1.96e7	2.64e7	inactive
